From patent US20200237746A1, “HSP90 TARGETED CONJUGATES AND PARTICLE FORMULATIONS THEREOF” (TARVEDA THERAPEUTICS, INC., priority 2017, published 2020)
“And” between values parts separate entries of the source, which are not always exact repeats. Identical values can stand only once. This continues a long series; more values of the same kind are listed elsewhere.

System: NCI-H69 xenograft model (small cell lung cancer)
Assay: Efficacy in NCI-H69 xenograft model: tumor volumes and tumor growth inhibition
Type: in vivo, mice
Description: Efficacies of Compound A alone or formulated in nanoparticles were studied with NCI-H69 xenograft model (small cell lung cancer).

For `CCc1c2c(nc3ccc(OC(=O)N4CCC(CCn5ccc6cc(-n7c(O)nnc7-c7cc(C(C)C)c(O)cc7O)ccc65)CC4)cc13)-c1cc3c(c(=O)n1C2)COC(=O)[C@]3(O)CC` [Compound A, (S)-4,11-diethyl-4-hydroxy-3,14-dioxo-3,4,12,14-tetrahydro-1H-pyrano[3′,4′:6,7]indolizino[1,2-b]quinolin-9-yl 4-(2-(5-(3-(2,4-dihydroxy-5-isopropylphenyl)-5-hydroxy-4H-1,2,4-triazol-4-yl)-1H-indol-1-yl)ethyl)piperidine-1-carboxylate], the TV individual animal (Compound A 25 mg/kg days 1 and 8, Day 1, 25 mg/kg) was 224 mm3 and 243 mm3 and 283 mm3 and 287 mm3 and 307 mm3 and 322 mm3 and 345 mm3 and 348 mm3 and 183 mm3 and 192 mm3, the TV individual animal (Compound A 25 mg/kg days 1 and 8, Day 5, 25 mg/kg) was 336 mm3 and 393 mm3 and 434 mm3 and 365 mm3 and 471 mm3 and 469 mm3 and 480 mm3 and 481 mm3 and 200 mm3 and 277 mm3 and the TV individual animal (Compound A 25 mg/kg days 1 and 8, Day 8, 25 mg/kg) was 339 mm3 and 499 mm3 and 515 mm3 and 414 mm3 and 514 mm3 and 449 mm3 and 500 mm3 and 497 mm3 and 175 mm3 and 336 mm3. For the same compound, the TV individual animal (Compound A 25 mg/kg days 1 and 8, Day 11, 25 mg/kg) was 321 mm3 and 434 mm3 and 450 mm3 (2×) and 279 mm3 and 508 mm3 and 348 mm3 and 547 mm3 and 160 mm3 and 335 mm3, the TV individual animal (Compound A 25 mg/kg days 1 and 8, Day 16, 25 mg/kg) was 235 mm3 and 513 mm3 and 444 mm3 and 155 mm3 and 472 mm3 and ulcer and 423 mm3 and 429 mm3 and 103 mm3 and 335 mm3 and the TV individual animal (Compound A 25 mg/kg days 1 and 8, Day 19, 25 mg/kg) was “sick and 613 mm3 and 464 mm3 and 117 mm3 and 489 mm3 and 522 mm3 and 457 mm3 and 95 mm3 and 342 mm3”. For the same compound, the TV individual animal (Compound A 25 mg/kg days 1 and 8, Day 22, 25 mg/kg) was 763 mm3 and 654 mm3 and 90 mm3 and 599 mm3 and 728 mm3 and 652 mm3 and 86 mm3 and 511 mm3, the TV individual animal (Compound A 25 mg/kg days 1 and 8, Day 26, 25 mg/kg) was 990 mm3 and 750 mm3 and 80 mm3 and 828 mm3 and 1019 mm3 and 888 mm3 and 77 mm3 and 603 mm3 and the TV individual animal (Compound A 25 mg/kg days 1 and 8, Day 31, 25 mg/kg) was 1378 mm3 and 1010 mm3 and 5 mm3 and 1040 mm3 and 1446 mm3 and 1077 mm3 and 60 mm3 and 915 mm3. The TV individual animal (Compound A 50 mg/kg days 1 and 8, Day 1, 50 mg/kg) was 276 mm3 and 290 mm3 and 309 mm3 and 335 mm3 and 340 mm3 and 351 mm3 and 147 mm3 and 208 mm3, the TV individual animal (Compound A 50 mg/kg days 1 and 8, Day 5, 50 mg/kg) was 394 mm3 and 320 mm3 and 381 mm3 and 333 mm3 and 384 mm3 and 513 mm3 and 445 mm3 and 227 mm3 and 311 mm3 and the TV individual animal (Compound A 50 mg/kg days 1 and 8, Day 8, 50 mg/kg) was 409 mm3 and 357 mm3 and 256 mm3 and 374 mm3 and 479 mm3 and 474 mm3 and 487 mm3 and 281 mm3 and 326 mm3. The TV individual animal (Compound A 50 mg/kg days 1 and 8, Day 11, 50 mg/kg) was 332 mm3 and 278 mm3 and ulcer and 243 mm3 and 280 mm3 and 266 mm3 and 342 mm3 and 237 mm3 and 230 mm3, the TV individual animal (Compound A 50 mg/kg days 1 and 8, Day 16, 50 mg/kg) was 206 mm3 and 163 mm3 and 161 mm3 and 173 mm3 and ulcer (2×) and 176 mm3 and 150 mm3 and the TV individual animal (Compound A 50 mg/kg days 1 and 8, Day 19, 50 mg/kg) was 147 mm3 and 128 mm3 and 104 mm3 and 126 mm3 and 148 mm3 and 60 mm3. For the same compound, the TV individual animal (Compound A 50 mg/kg days 1 and 8, Day 22, 50 mg/kg) was 153 mm3 and 132 mm3 and 141 mm3 and 123 mm3 and 171 mm3 and 68 mm3, the TV individual animal (Compound A 50 mg/kg days 1 and 8, Day 26, 50 mg/kg) was 204 mm3 and 161 mm3 and 178 mm3 and 113 mm3 and 329 mm3 and 59 mm3 and the TV individual animal (Compound A 50 mg/kg days 1 and 8, Day 31, 50 mg/kg) was 420 mm3 and 348 mm3 and 313 mm3 and 276 mm3 and 613 mm3 and 6 mm3.
